Measurements reported in PubChem BioAssay AID1487 (National Center for Advancing Translational Sciences (NCATS), 2009).
The other results are listed elsewhere or left out. The main result of the screen is listed elsewhere. These columns were measured beside it and carry no call. Most of these compounds were active or inconclusive in the main read-out, so they are no random draw. Potencies come from curve fits of mixed quality, noted in brackets.

Experiment: qHTS Assay for Modulators of Lamin A Splicing
Conditions: HeLa LMNA splicing GFP/RFP minigene ratio, 48 h
How it was run: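 S3 HeLa cells stably expressing lamin A-EGFP splicing minigene plus DsRed2, 600 cells/well, 48 h compound exposure at 37C. Laser-scanning cytometry; analysed as GFP (500-530 nm)/RFP (575-640 nm) total intensity ratio; 0.5% DMSO vehicle.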

[1] = measured here: RFP viability control channel
[2] = measured here: GFP splicing reporter channel

SMILES | AC50 [1] | AC50 [2]
COc1ccc(CCC(=O)NCc2nc3cccnc3n2Cc2ccc(C)cc2)cc1 | 0.02 µM [falling, full curve, poor fit] | –
CC(=O)Nc1nc(C)c(-c2csc(Nc3ccccn3)n2)s1 | 0.158 µM [falling, full curve, poor fit] | 5.01 µM [falling, full curve]
c1cc(CN2CCCCC2)cc(OCCCNc2nc3ccccc3s2)c1 | – | 35.5 µM [falling, single point]
COc1cc2cc(C)nc(Cc3cccc4ccccc34)c2cc1OC | 10 µM [rising, partial curve] | –
O=C(/C=C/c1cccc([N+](=O)[O-])c1)NCc1ccc2c(c1)OCO2 | 25.1 µM [rising, single point] | –
CCOc1cc(CNCC(O)c2ccccc2)cc(Cl)c1OC (stereo not drawn) | 3.55 µM [falling, full curve] | 10 µM [falling, partial curve]
c1ccc(CNc2nnnn2-c2ccccc2)cc1 | 25.1 µM [rising, single point] | 22.4 µM [rising, single point]
CN1CCc2c(sc3ncn4nc(-c5ccccc5O)nc4c23)C1 | 20 µM [rising, single point] | –
O=c1c(-c2cccs2)nc2cnc(N3CCNCC3)nc2n1C1CC1 | 12.6 µM [falling, single point] | 17.8 µM [falling, single point]
COc1ccc(-c2nc(C)c(CCNC(=O)c3cc(OC)c(OC)c(OC)c3)s2)cc1OC | 0.398 µM [falling, partial curve, poor fit] | –
O=C(Nc1nc(-c2nc3ccccc3s2)cs1)C1COc2ccccc2O1 (stereo not drawn) | 14.1 µM [rising, single point] | –
Cc1cc(C)cc(C(=O)Nc2nnc(SCC(=O)N3CCCc4ccccc43)s2)c1 | – | 3.55 µM [falling, full curve, poor fit]
CCCCNS(=O)(=O)c1ccc(NC(=O)C2CCCO2)cc1 (stereo not drawn) | 12.6 µM [rising, single point] | 8.91 µM [rising, partial curve]
CCN(CC)S(=O)(=O)c1cnccc1N1CCN(c2cccc(Cl)c2)CC1 | 15.8 µM [rising, partial curve] | 12.6 µM [rising, partial curve, poor fit]
COC(=O)c1ccc(NC(=O)CSc2nc3ccccc3c(=O)[nH]2)cc1 | 6.31 µM [falling, single point] | –
COc1ccc(C(C#N)N2CCC(c3ccccc3)=N2)cc1OC (stereo not drawn) | 7.94 µM [falling, single point] | 35.5 µM [falling, single point]

Ordered by molecular weight (ascending): 3 of the compounds above.
SMILES | AC50 [1] | AC50 [2]
c1cc(CN2CCCCC2)cc(OCCCNc2nc3ccccc3s2)c1 | – | 35.5 µM [falling, single point]
COc1ccc(CCC(=O)NCc2nc3cccnc3n2Cc2ccc(C)cc2)cc1 | 0.02 µM [falling, full curve, poor fit] | –
Cc1cc(C)cc(C(=O)Nc2nnc(SCC(=O)N3CCCc4ccccc43)s2)c1 | – | 3.55 µM [falling, full curve, poor fit]
